This assay has as its system BDF1 mice, intracerebral L1210 leukemia, survival T/C. Nature of the assay: NCI In Vivo Anticancer Drug Screen. Data for tumor model L1210 Leukemia (intracerebral) in B6D2F1 (BDF1) mice. The settings on record: T/C endpoint: mean survival time, higher T/C = longer survival. Here is the method: The antitumor activity of compounds was measured in mice bearing transplantable tumors. Survival or tumor size were measured and the results are expressed as the measurement made in the treated group (T) divided by the measurement made in the vehicle treated control group (C). The tumor model used in this assay is L1210 Leukemia (intracerebral) in B6D2F1 (BDF1) mice

The list shows only some results of the screen, not a fair sample: it covers a few groups of compounds. Other doses and runs of a compound may be missing. T/C gives the treated animals as a percentage of the vehicle group. Where survival is the endpoint, the PubChem record calls one and a half times the control and up active, and a quarter to a half above the control has no call in these data; cut-offs in other NCI protocols can differ. Some entries show no survivor count and are marked so; the dose need not have been tolerated. Schedules are NCI's codes, read here as Q, the interval in days (D) or hours (H), X, the number of doses. Some schedules carry Z or #; the key to these is not given.

Consider `NC(Cc1ccccc1N(CCCl)CCCl)C(=O)O` (stereo unspecified), for which the T/C is 109 % of control [survivor count not shown] (dose: 1.0 mg/kg/injection, schedule: Q01DX Z (ip), vehicle: carboxymethylcellulose (CMC)); 125 % of control [survivor count not shown] (dose: 2.0 mg/kg/injection, schedule: Q01DX Z (ip), vehicle: carboxymethylcellulose (CMC)); 114 % of control [survivor count not shown] (dose: 3.0 mg/kg/injection, schedule: Q01DX Z (ip), vehicle: carboxymethylcellulose (CMC)); 88 % of control [survivor count not shown] (dose: 4.0 mg/kg/injection, schedule: Q01DX Z (ip), vehicle: carboxymethylcellulose (CMC)).

For `COC1OC(CN(CCCl)CCCl)C2OC(C)(C)OC12` (stereo unspecified), the T/C reads like this: (dose: 1.5 mg/kg/injection, schedule: Q04DX003 (ip), vehicle: saline) 108 % of control [survivor count not shown]; (dose: 3.0 mg/kg/injection, schedule: Q04DX003 (ip), vehicle: saline) 103 % of control [survivor count not shown]; (dose: 6.0 mg/kg/injection, schedule: Q04DX003 (ip), vehicle: saline) 92 % of control [survivor count not shown].

For `CCC1(CC)NC(=O)N(CCN(CCCl)CCCl)C1=O`, the T/C (dose: 1.0 mg/kg/injection, schedule: Q01DX009 (ip), vehicle: saline) was 101 % of control [survivor count not shown]; the T/C (dose: 1.0 mg/kg/injection, schedule: Q04DX003 (ip), vehicle: saline) is 101 % of control [survivor count not shown]; the T/C (dose: 2.0 mg/kg/injection, schedule: Q01DX009 (ip), vehicle: saline) was 101 % of control [survivor count not shown]; the T/C (dose: 2.0 mg/kg/injection, schedule: Q04DX003 (ip), vehicle: saline) is 97 % of control [survivor count not shown]; the T/C (dose: 4.0 mg/kg/injection, schedule: Q01DX009 (ip), vehicle: saline) was 111 % of control [survivor count not shown]; the T/C (dose: 4.0 mg/kg/injection, schedule: Q04DX003 (ip), vehicle: saline) was 105 % of control [survivor count not shown]. For the same molecule, the T/C by setting is: (dose: 8.0 mg/kg/injection, schedule: Q01DX009 (ip), vehicle: saline) 103 % of control [survivor count not shown]; (dose: 8.0 mg/kg/injection, schedule: Q04DX003 (ip), vehicle: saline) 108 % of control [survivor count not shown]; (dose: 16.0 mg/kg/injection, schedule: Q04DX003 (ip), vehicle: saline) 94 % of control [survivor count not shown].

`CC1(C)NC(=O)N(CCN(CCCl)CCCl)C1=O`: the T/C is 101 % of control [survivor count not shown] (dose: 0.78 mg/kg/injection, schedule: Q01DX009 (ip), vehicle: Klucel (hydroxypropylcellulose) (HPC)); 100 % of control [survivor count not shown] (dose: 0.78 mg/kg/injection, schedule: Q04DX003 (ip), vehicle: saline); 89 % of control [survivor count not shown] (dose: 1.56 mg/kg/injection, schedule: Q01DX009 (ip), vehicle: Klucel (hydroxypropylcellulose) (HPC)); 101 % of control [survivor count not shown] (dose: 1.56 mg/kg/injection, schedule: Q04DX003 (ip), vehicle: saline); 101 % of control [survivor count not shown] (dose: 3.12 mg/kg/injection, schedule: Q01DX009 (ip), vehicle: Klucel (hydroxypropylcellulose) (HPC)); 101 % of control [survivor count not shown] (dose: 3.12 mg/kg/injection, schedule: Q04DX003 (ip), vehicle: saline). For the same molecule, the T/C (dose: 6.25 mg/kg/injection, schedule: Q04DX003 (ip), vehicle: saline) was 108 % of control [survivor count not shown] and the T/C (dose: 12.5 mg/kg/injection, schedule: Q04DX003 (ip), vehicle: saline) is 106 % of control [survivor count not shown].

In the case of `NS(=O)(=O)c1ccc(N(CCBr)CCBr)cc1`, the T/C was 101 % of control [survivor count not shown] (dose: 101.5 mg/kg/injection, schedule: Q01DX005 (ip), vehicle: carboxymethylcellulose (CMC)) and 96 % of control [survivor count not shown] (dose: 203.0 mg/kg/injection, schedule: Q01DX005 (ip), vehicle: carboxymethylcellulose (CMC)).

Source of the values: PubChem BioAssay AID252 (DTP/NCI, 2004).
